We go through 57 sequences from paper PMC7862700.

Only a part is listed here, and it is no random draw. For part of these data: At the low end of the ranking the order means little. The list shows a part of the results. For part of these data: The exact form of the protein is not confirmed.

The target in one assay is T1, ETV4 (UniProt P43268).
T1 sequence: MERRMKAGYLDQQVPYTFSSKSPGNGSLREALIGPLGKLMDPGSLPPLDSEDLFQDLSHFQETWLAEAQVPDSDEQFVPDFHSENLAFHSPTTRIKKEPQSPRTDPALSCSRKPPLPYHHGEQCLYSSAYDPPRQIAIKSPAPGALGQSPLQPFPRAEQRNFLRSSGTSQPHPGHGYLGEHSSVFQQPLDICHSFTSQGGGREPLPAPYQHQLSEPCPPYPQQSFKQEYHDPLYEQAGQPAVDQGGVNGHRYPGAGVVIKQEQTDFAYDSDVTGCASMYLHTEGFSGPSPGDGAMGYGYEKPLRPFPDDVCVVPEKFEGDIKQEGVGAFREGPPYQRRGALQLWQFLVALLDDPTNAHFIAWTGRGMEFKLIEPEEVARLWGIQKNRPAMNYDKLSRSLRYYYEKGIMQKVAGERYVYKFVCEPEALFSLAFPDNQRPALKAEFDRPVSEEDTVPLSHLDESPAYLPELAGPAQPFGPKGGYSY
The assay can be described thus: DAPPL (digital affinity profiling via proximity ligation, sequencing). The settings on record: 10 mM Tris-HCl pH 7.5, 50 mM NaCl, 1 mM DTT, 4% glycerol, room temperature, 30 min; GST-TFs on glutathione beads, 16-mer random dsDNA library, 0.1% …; high values mean tight binding; double strand, one strand shown; scale: fold enrichment (6-mer frequency, TF over GST control).

The target of the next assay is T2, ERG (UniProt P11308).
T2 sequence: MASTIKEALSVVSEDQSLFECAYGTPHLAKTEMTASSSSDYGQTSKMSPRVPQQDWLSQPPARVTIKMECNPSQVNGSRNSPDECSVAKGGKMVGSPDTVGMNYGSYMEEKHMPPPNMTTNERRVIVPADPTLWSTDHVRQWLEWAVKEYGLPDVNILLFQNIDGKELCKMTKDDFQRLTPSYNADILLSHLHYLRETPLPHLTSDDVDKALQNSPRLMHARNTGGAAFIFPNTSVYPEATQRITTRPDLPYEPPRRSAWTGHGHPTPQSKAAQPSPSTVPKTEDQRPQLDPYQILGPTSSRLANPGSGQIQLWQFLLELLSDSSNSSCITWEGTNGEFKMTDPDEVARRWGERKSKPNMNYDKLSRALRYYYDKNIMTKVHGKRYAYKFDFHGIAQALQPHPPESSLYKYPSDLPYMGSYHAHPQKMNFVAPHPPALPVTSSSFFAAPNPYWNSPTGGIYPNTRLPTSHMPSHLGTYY
The description is as above. To be noted: 10 mM Tris-HCl pH 7.5, 50 mM NaCl, 1 mM DTT, 4% glycerol, room temperature, 30 min; GST-TFs on glutathione beads, 16-mer random dsDNA library, 0.1% …; high values mean tight binding; double strand, one strand shown; scale: fold enrichment (6-mer frequency, TF over GST control).

The sequence TTCATG showed a binding signal with ETV4 of 1.27.
Still for that read-out and setting: then CCGTTC, with 1.46; and AACCCC, with 1.12.
On the same count and under the same terms, to CTCCCT belongs 1.67; to TATTGC, 1.43; to ACACAA, 1.15.
On the same count and under the same terms, to CCTCCT belongs 1.48; to TACCTA, 1.32; to TTTCAA, 1.32.
CTTAAA had a binding signal in the assay with ETV4 of 1.18.
As to CATTAT, in the assay with ETV4, the binding signal was 1.2.
Still for that read-out and setting: then GGAAAA, with 1.13; and CTATTG, with 1.34.
The same measure, in the same setting: then GGTACA, with 1.03; and TTTTAT, with 1.3; and CAAACC, with 1.11.
Sequence CATACA came in with a binding signal with ETV4 of 1.09.
Same read-out and setting: then CTCAGC, with 1.28; and TGTCAA, with 1.08.
Still for that read-out and setting: to TACAGC belongs 1.12; to ACTACG, 1.27; to CGTAGC, 1.12.
The same measure, in the same setting: to AAGCTG belongs 1.12.
The sequence CTCCGT gave a binding signal with ETV4 of 1.23.
Same read-out and setting: then TACGTC, with 1.18; and TACTCC, with 1.35.
CGCTTG showed a binding signal with ETV4 of 1.03.
The sequence AAGATT showed a binding signal with ETV4 of 1.16.
Still for that read-out and setting: then TCCGTA, with 1.54; and CGTTCT, with 1.56.
Same read-out and setting: then TTGAGC, with 1.08; and TCTATG, with 1.15; and CTTTAC, with 1.36.
CCCTCA gave a binding signal with ETV4 of 1.25.
On the same count and under the same terms, then CCGTCA, with 1.28; and TTCGAG, with 1.29; and TTGGTC, with 1.07.
For the sequence ATTGCA, the binding signal with ERG worked out at 1.21; in the assay with ETV4 it was 1.13.
The like results for CTCGTT were, in that order, 1.25 and 1.36.
In the same order, the values of CTGTAT are 1.18 and 1.19.
Regarding TTTACC, the binding signal with ETV4 worked out at 1.21.
TCCCTG: the binding signal was 1.28 with ERG and 1.29 with ETV4.
As for TATTTG, the values for the binding signal with ERG and with ETV4 were 1.47 and 1.4, respectively.
For CATATC, the binding signal with ETV4 is 1.4.
Turning to ATCCGG, the binding signal with ETV4 stood at 2.7.
For the sequence AGGTCT, the binding signal in the assay with ERG amounted to 1.15; with ETV4, 1.19.
With ATCCCG, the figures for the binding signal with ERG and in the assay with ETV4 were 1.44 and 1.34, respectively.
In the assay with ETV4, TGCAGC had a binding signal of 1.1.
Take ACCACA: the binding signal in the assay with ERG worked out at 0.977; with ETV4, 1.06.
For CAAGTT, the binding signal with ERG came out at 1.08; with ETV4, 1.04.
Regarding TTCGCC, in the assay with ETV4, the binding signal came to 1.17.
GGTAAT: the binding signal turned out to be 1.08 with ERG and 1.09 in the assay with ETV4.
The like results for TGGCCG were, in that order, 1.19 and 1.06.
In the same order, the values of TAGAAG are 1.19 and 1.19.
Consider ACGCCT, for which the binding signal stood at 1.2 with ERG and 1.27 in the assay with ETV4.
For AAACTT, the values for the binding signal in the assay with ERG and in the assay with ETV4 were 1.24 and 1.27, respectively.
Regarding CGCTGC, the binding signal with ERG turned out to be 1.22; in the assay with ETV4, 1.27.
